# Test results reported in ChEMBL document CHEMBL4296182, “CO-ADD screening of NIH NCI Diversity Set V”.
# The list shows a part of the results. Results with a measured potency or affinity are listed apart.
# Tested on: Pseudomonas aeruginosa
# Details: Concentration 20 uM; ASSAY_TEST Inhibition of Bacterial Growth; detection method Absorption (OD600); MEDIA CAMHB; plate type 384well; NBS; CORNING #3640; time 18 hr
row,Compound,Inhibition
1,Cc1cc(=O)oc2cc(OS(C)(=O)=O)ccc12,7.55%
2,N#CC1C=Cc2c(ccc3ccccc23)N1C(=O)c1ccccc1 (stereo not drawn),13.5%
3,c1ccc(-c2ccc(-c3nccc4ccccc34)[nH]2)cc1,6.83%
4,O=C(O)Cc1ccc(/N=N/c2c(O)c(C(=O)O)cc3ccccc23)cc1,13.8%
5,C(=C\c1ccccn1)/c1ccccn1,-13.05%
6,Oc1ccccc1-n1c(-c2ccccc2)ccc1-c1ccccc1,17.11%
7,C=CCOc1ccnc(-c2ccccc2)n1,2.21%
8,N#C/C(=C\c1ccc[nH]1)C(=O)c1ccccc1,11.69%
9,Cn1cnc([N+](=O)[O-])c1Sc1n[nH]c(N)n1,2.77%
10,COc1ccc2nc3cc(Cl)ccc3c(C#N)c2c1,8.17%
11,Nc1n[nH]c(-c2ccccc2)n1,24.19%
12,Clc1nc(Oc2ccccc2)nc(-c2cn(-c3ccccc3)c3ccccc23)n1,25.42%
13,c1ccc(-c2nnc(-c3ccccn3)s2)nc1,10.55%
14,Cc1ccc(/N=N/c2c(N)nn(-c3ccccc3)c2N)cc1,6.54%
15,Cc1cc(NC(=O)c2ccccc2)c(Cl)cc1N,8.57%
16,O=C(c1ccc(O)cc1)c1ccc(C(=O)c2ccc(O)cc2)cc1,21.13%
17,Cc1cccc2c1c1ccc3c(c1n2C)C(=O)C=CC3=O,11.97%
18,CCNC(=O)Oc1cccnc1O,18.32%
19,COC(=O)C1=C(C(=O)OC)[C@@H]2CCC[C@H]1[C@H]1[C@@H]2N=NN1c1ccccc1,15.52%
20,CCN(CC)CCN1C(=O)c2cccc3cc(N)cc(c23)C1=O,31.06%
21,Nc1c(Cl)cc(S(N)(=O)=O)cc1S(N)(=O)=O,5.19%
22,COc1c(NC(C)=O)c2ccccc2c2ccccc12,12.04%
23,c1ccc2c(c1)[nH]c1c3ccccc3sc21,-1.82%

row,Compound,Inhibition
1,COc1cc(/N=N/c2ccccc2C(=O)O)ccc1O,6.71%
2,NC(=O)Oc1cccc(OC(N)=O)c1,3.09%
3,CC(C)(C)N1CC(OC(N)=O)C1,11.94%
4,CCCOc1ccc(-c2nc(-c3ccc([N+](=O)[O-])cc3)cs2)cc1,20.27%
5,O=[N+]([O-])c1ccccc1CSc1nc(O)c2nc[nH]c2n1,20.96%
6,Cc1ccc(C)c(C(=O)CCC(=O)O)c1,5.34%
7,O=C1c2ccccc2C(=Cc2cccnc2)c2ccccc21,23.29%
8,Cc1cc(N(C)C)ccc1/N=N/c1ccc2ncccc2c1,6.87%
9,O=S1(=O)CSCS(=O)(=O)C1,-32.43%
10,COc1c(NC=O)c2c(c([N+](=O)[O-])c1OC)C(=O)OC2,7.87%
11,COc1ccc(OCC(O)CN2CCN(c3ccc(Cl)cc3)CC2)cc1 (stereo not drawn),30.78%
12,Cc1nc2ccc(N)nc2nc1C,22.15%
13,Cc1ccc(S(=O)(=O)CCOC(=O)CNC(=O)OCc2ccccc2)cc1,21.58%
14,Nc1ccnn1-c1ccccc1,11.96%
15,CCCN(CCC)CC(=O)N1CC(=O)Nc2ccccc21,-8.57%
16,Oc1cc(-c2ccc(Cl)cc2)nc2ccccc12,4.43%
17,COc1ccc(-c2cc3ccccc3[nH]2)cc1,16.23%
18,O=c1[nH]c(=S)c2ncn(-c3ccccc3)c2[nH]1,-0.61%
19,CCC(C)NC(=O)CC(C)C (stereo not drawn),27.39%
20,Nc1cc(O)nc2ncnn12,28.76%
21,Nc1ccc(C(=O)Nc2ccc(Nc3ccncc3)cc2)cc1,-9.37%
22,O=[N+]([O-])c1c(N2CCN(CCO)CC2)nc2ccccn12,4.24%
23,c1ccc(-n2ncc3cccnc32)cc1,0.98%

row,Compound,Inhibition
1,O=C(O)CCC(=O)c1ccc2ccc3cccc4ccc1c2c34,20.58%
2,Cc1ccn2c(C(C)O)nnc2c1 (stereo not drawn),15.75%
3,Cl.Nc1ncnc2c(C3OC(CO)C(O)C3O)c[nH]c12 (stereo not drawn),-10.08%
4,O=C1CCC(c2ccccc2)(c2ccccc2)CC1,-4.44%
5,CC1CC(C)(C)C2=NCCN21 (stereo not drawn),6.11%
6,Clc1ccc(-c2nc(-c3cc4cc(Cl)ccc4o3)cs2)cc1,29.69%
7,C[C@]12CC[C@H](O)CC1=CC[C@@H]1[C@@H]2CC[C@]2(C)c3n[nH]cc3C[C@@H]12,8.33%
8,O=C(COc1ccc([N+](=O)[O-])cc1Cl)N1CCOCC1,24.08%
9,Nc1ccc(C(=O)Nc2cccc(N)c2)cc1,4.25%
10,COc1cc(Cl)c(CC(=O)c2c[nH]c3ccccc23)cc1OC,10.74%
11,COc1c(C=O)c2c(c(OC)c1OC)-c1ccc(OC)c(=O)cc1[C@@H](NC(C)=O)CC2,19.46%
12,CCN(CC)Cc1cc2[nH]c3c4ccc(Cl)cc4ncc3c2cc1OC,29.68%
13,CCCCN1C(=O)CC(C(=O)OCC)=C1C,-2.02%
14,CN(C)S(=O)(=O)N1C(=O)c2ccccc2C1=O,-0.85%
15,CSc1ccc(NC(=O)Nc2cc(C)ccn2)cc1,22.75%
16,Cc1nc(N)nc(Nc2ccc(C#N)cc2)c1Br,14.08%
17,CCCCn1cnc2c(S)nc(N)nc21,-14.98%
18,C=C1S/C(=N\c2c(C)cccc2Cl)N(C(=O)c2sc3ccccc3c2Cl)C12CCCCC2,-6.03%
19,O=C(O)C(Cc1ccccc1N(CCO)CCO)N1C(=O)c2ccccc2C1=O (stereo not drawn),21.43%
20,O=[N+]([O-])c1ccccc1/C=C/C=N/N=C/c1ccccc1O,14.78%
21,Nc1ccc(Oc2ccc(N)c([N+](=O)[O-])c2)cc1[N+](=O)[O-],6.41%
22,Cc1ccc(NC(=S)NC(=O)c2ccccc2)cc1NC(=S)NC(=O)c1ccccc1,19.52%
23,Oc1ccnc2c(Cl)cccc12,-8.65%

row,Compound,Inhibition
1,O=C(OCC(O)COC(=O)c1cccnc1)c1cccnc1,12.36%
2,Cn1c(=O)c2nc(N3CCCCC3)[nH]c2n(C)c1=O,6.33%
3,CCOC(=O)C(=O)C1C(=O)Nc2ccccc21 (stereo not drawn),0.76%
4,c1ccc(-c2nc(-c3nccc4ccccc34)oc2-c2ccccc2)cc1,-11.23%
5,NC(=O)N/N=C1\CC2CC1C1C=CCC21 (stereo not drawn),29.96%
6,CC(=O)Oc1ccc(OC(C)=O)c2c1CC1(C)OC1(C)C2 (stereo not drawn),11.45%
7,COc1cc(NC(=O)CCl)ccc(=O)c1,6.38%
8,O=C1c2ccccc2C2=C3C(O)=NN=C3CCN12,5.07%
9,NC(=O)CCC(C(=O)O)N1C(=O)c2ccc(O)cc2C1=O (stereo not drawn),-3.18%
10,CC(C)(C)c1ccc(C(=O)N2CCOC23CCCCC3)cc1,14.96%
11,CCNc1ccccc1C(=O)O,23.54%
12,CC(C)(C)c1ccc(NS(=O)(=O)c2ccc(N)cc2)cc1,8.53%
13,CC1(C)OC2CC(=O)OCC23C1CC(=O)C1(C)C3CCC2(C)C(c3ccoc3)OC(=O)C3OC321 (stereo not drawn),19.35%
14,O=C(Nc1ccc(F)cc1)OCCOc1ccc([N+](=O)[O-])cc1,-7.63%
15,COc1ccc(NC2=NC(C)(CO)CS2)cc1 (stereo not drawn),9.26%
16,O=C(C=C=Nc1ccccc1)C(=O)N=C=Cc1ccccc1,4.16%
17,Cc1nn(-c2ccccc2)nc1C(=O)Nc1ccc2[nH]ncc2c1,25.68%
18,OCc1cc(O)c(CO)nn1,-19.75%
19,COc1cc(OC)c2c(=O)cc(-c3cccnc3)oc2c1,1.56%
20,COc1ccc(Nc2cc(Cl)ccc2C(=O)O)cn1,3.25%
21,COc1cc(NC(C)=O)c2ncccc2c1NC(C)=O,-13.16%
22,O=c1c(O)cccc2cc(O)c(O)c(O)c12 [PURPUROGALLIN],13.67%
23,CCOC(=O)c1ccc2c(c1)NCc1cccc(OC)c1O2,12.01%

row,Compound,Inhibition
1,CCN(CC)CCNC(=O)c1ccc(NCN2C(=O)NC(c3ccccc3)(c3ccccc3)C2=O)cc1,12.58%
2,Cc1nc(SCC(=O)O)n[nH]1 [TIAZOTIC ACID],13.36%
3,Cn1c(=O)c2c(nc(N3CCOCC3)n2C)n(C)c1=O,11.44%
4,CCOC(=O)Nc1csnn1,18.96%
5,Cc1cc(NC(=O)Nc2cccc3ccccc23)no1,6.83%
6,O=C(Nc1ccc(Nc2ccncc2)cc1)c1ccc([N+](=O)[O-])cc1,26.85%
7,COc1ccc(NC2=CC(=S)NC(C)(C)C2)cc1,17.53%
8,CC(=O)[C@H]1CC[C@H]2[C@@H]3CCC4=CC(=O)CC[C@]4(C)[C@@]3(F)[C@@H](O)C[C@]12C,23.06%
9,COc1ccccc1/C=C1\Cc2ccccc2C1=O,-8.15%
10,O=[N+]([O-])C1C(c2ccccc2)C12c1ccccc1-c1ccccc12 (stereo not drawn),23.23%
11,O=c1n(CC2CO2)c(=O)n(CC2CO2)c(=O)n1CC1CO1 (stereo not drawn) [TEROXIRONE],7.38%
12,Cc1cc2c(cc1C)N(C(=O)CCl)CC(=O)N2,-0.8%
13,NCC(=O)c1cccc2ccc[n+]([O-])c12,1.7%
14,CSc1nsc(NN)n1,9.86%
15,Nc1nc(O)c2ncn(C3CCCC3)c2n1,22.89%
16,CC(C)(C(N)=O)c1ccccc1,20.96%
17,CC(C)(C)n1nc(C2CC2)cc1NC(=O)Nc1ccc(Cl)cc1,-8.59%
18,Cc1cnc2cc(Cl)ccc2c1SCC(=O)O,3.5%
19,Sc1nc2c[nH]c(S)nc-2n1,21.47%
20,Cc1cn(C2CC(O)C(CO)O2)c(=O)n(Cc2ccccc2)c1=O (stereo not drawn),30.46%
21,CCCCCc1cc(O)nc(S)n1,2.45%

# A section from further up, for reference:
row,Compound,Inhibition
20,COc1ccc(Nc2cc(Cl)ccc2C(=O)O)cn1,3.25%
21,COc1cc(NC(C)=O)c2ncccc2c1NC(C)=O,-13.16%
22,O=c1c(O)cccc2cc(O)c(O)c(O)c12 [PURPUROGALLIN],13.67%
23,CCOC(=O)c1ccc2c(c1)NCc1cccc(OC)c1O2,12.01%
1,CCN(CC)CCNC(=O)c1ccc(NCN2C(=O)NC(c3ccccc3)(c3ccccc3)C2=O)cc1,12.58%
2,Cc1nc(SCC(=O)O)n[nH]1 [TIAZOTIC ACID],13.36%
3,Cn1c(=O)c2c(nc(N3CCOCC3)n2C)n(C)c1=O,11.44%
4,CCOC(=O)Nc1csnn1,18.96%
5,Cc1cc(NC(=O)Nc2cccc3ccccc23)no1,6.83%
6,O=C(Nc1ccc(Nc2ccncc2)cc1)c1ccc([N+](=O)[O-])cc1,26.85%
7,COc1ccc(NC2=CC(=S)NC(C)(C)C2)cc1,17.53%
8,CC(=O)[C@H]1CC[C@H]2[C@@H]3CCC4=CC(=O)CC[C@]4(C)[C@@]3(F)[C@@H](O)C[C@]12C,23.06%
9,COc1ccccc1/C=C1\Cc2ccccc2C1=O,-8.15%
10,O=[N+]([O-])C1C(c2ccccc2)C12c1ccccc1-c1ccccc12 (stereo not drawn),23.23%
11,O=c1n(CC2CO2)c(=O)n(CC2CO2)c(=O)n1CC1CO1 (stereo not drawn) [TEROXIRONE],7.38%
12,Cc1cc2c(cc1C)N(C(=O)CCl)CC(=O)N2,-0.8%
13,NCC(=O)c1cccc2ccc[n+]([O-])c12,1.7%
14,CSc1nsc(NN)n1,9.86%
15,Nc1nc(O)c2ncn(C3CCCC3)c2n1,22.89%
16,CC(C)(C(N)=O)c1ccccc1,20.96%
17,CC(C)(C)n1nc(C2CC2)cc1NC(=O)Nc1ccc(Cl)cc1,-8.59%
18,Cc1cnc2cc(Cl)ccc2c1SCC(=O)O,3.5%
